# In paper PMC6530537 (Chemical Science, 2019):
# HELM strings list residues between dots; [ac] is acetyl, [am] amide, other brackets name non-standard units.
# Test: general procedure: Fmoc solid-phase peptide synthesis
# Conditions: whole synthesis, Analytical HPLC, Agilent 1260 Infinity, Supelcosil ABZ+PLUS column, 0.05% TFA water/MeCN, UV 220 and 254 nm
row,Substance,final HPLC purity
1,Ac-CRLYGFIHGC-NH,90%
2,Ac-CRLYGFKIHGC-NH2 (also: cyclic (positions not given here)),84%
3,Ac-GCRLYGFKIHGCG-NH2,99%
4,Ac-MSGDEMIFDPTMS(K)8P-NH2,90%
5,"PEPTIDE1{[ac].G.C.R.L.Y.G.F.K.I.H.G.C.G.[am]}$PEPTIDE1,PEPTIDE1,3:R3-13:R3$$$V2.0",87%
